Measured values published in publication PMC4355418.

Target: SUMO-tagged ACR4 KC with the LLSLL motif replaced with Ala (sACR4 KC-AAAAA) (Arabidopsis)
Assay: peptide binding assay on nickel coated plates (streptavidin-alkaline phosphatase, A405); ~1 μM protein immobilised by its His tag on a 96 well nickel coated plate in TBS + 0.1% Tween20; 200 μM biotinylated peptide, 2 h room temperature; SUMO well subtracted; both purified

Binder | binding
DTRSSKDSAFTKDNG (biotin tag at the amino terminus) [JMD1 peptide of the ACR4 juxtamembrane domain] | binds
DTRSSKDSAFTKDNG (phosphoserine at 475) [pJMD1 peptide (JMD1 with phosphorylated Ser475)] | binds
HRRADKDSAFVNELES (biotin tag at the amino terminus) [CRK1 hC peptide (helix-C region of the CRK1 kinase domain)] | binds

No constants are given. Whether binding was seen depends on the method and setting. Binding can be weak; no strength is given.
